No constants are given. Whether binding was seen depends on the method and setting. Some results given as binding are weak or reduced against the parent protein; the word gives no strength.
What was measured:
[1] = biological target: human β2-microglobulin (human) (UniProt P61769); test: SPR, 100 RU hβ2M amine-coupled, hAFP injected at 2000-15.6 nM, pH 6
[2] = biological target: native human β2M on primary cells (human PBMC; cells of hFcRn and hβ2M transgenic mice) (human) (UniProt P61769); test: flow cytometry, loss of anti-β2M staining after preincubation with AFP

The chains behind the UniProt entries cited, without tags or fusion partners. Where a name states a change or a piece, a line headed by the entry shows the natural chain unless it says otherwise.
UniProt P61769: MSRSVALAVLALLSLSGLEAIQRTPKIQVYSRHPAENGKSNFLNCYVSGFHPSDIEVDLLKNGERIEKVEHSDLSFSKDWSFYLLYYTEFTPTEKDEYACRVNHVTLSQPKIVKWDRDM

B1: human alpha-fetoprotein (AFP) (ligand)
chain: RTLHRNEYGIASILDSYQCTAEISLADLATIFFAQFVQEATYKEVSKMVKDALTAIEKPTGDEQSSGCLENQLPAFLEELCHEKEILEKYGHSDCCSQSEEGRHNCFLAHKKPTPASIPLFQVPEPVTSCEAYEEDRETFMNKFIYEIARRHPFLYAPTILLWAARYDKIIPSCCKAENAVECFQTKAATVTKELRESSLLNQHACAVMKNFGTRTFQAITVTKLSQKFTKVNFTEIQKLVLDVAHVHEHCCRGDVLDCLQDGEKIMSYICSQQDTLSNKITECCKLTTLERGQCIIHAENDEKPEGLSPNLNRFLGDRDFNQFSSGEKNIFLASFVHEYSRRHPQLAVSVILRVAKGYQELLEKCFQTENPLECQDKGEEELQKYIQESQALAKRSCGLFQKLGEYYLQNAFLVAYTKKAPQLTSSELMAITRKMAATAATCCQLSEDKLLACGEGAADIIIGHLCIRHEMTPVNPGVGQCCTSSYANRRPCFSSLVVDETYVPPAFSDDKFIFHKDLCQAQGVALQTMKQEFLINLVKQKPQITEEQLEAVIADFSGLLEKCCQGQEQEVCFAEEGQKLISKTRAALGV
**Q.** Which binding [1] does the source give for B1 here?
**A.** Its binding is “binds”.

**Q.** What about the binding [2] of the same binder?
**A.** The binding was “binds”.

Source: US20190201496A1
